Patent US20250090507A1, “Methods of Treating Cancer With a B-RAF Inhibitor” (MapKure, LLC, priority 2022, published 2025)

Tested on: patients with tumors harboring B-RAF or K-RAS/N-RAS mutations
Assay: Phase 1 study: tumor response by investigators using RECIST v1.1
Assay type: in vivo, human
Conditions: 42 patients
Protocol: Objective response rate was defined as the proportion of patients who had confirmed CR or PR, assessed by the investigator using RECIST v1.1.
Clinical benefit rate was defined as the proportion of patients with best overall response (BOR) of confirmed CR, PR, or SD lasting ≥16 weeks.
Tumor imaging were performed within 21 days prior to the first study treatment. Results of standard of care tests or examinations performed prior to obtaining informed consent and ≤21 days prior to the first administration of IMP may be used for the purposes of screening rather than repeating the standard of care tests. During the study, tumor imaging was performed approximately every 8 (±1) weeks in the first year and approximately every 12 (±1) weeks thereafter. Tumor assessments were required to be performed on schedule regardless of whether study treatment has been administered or held.
Tumor response was assessed by the investigators using RECIST v1.1. The same evaluator should perform assessments, if possible, to ensure internal consistency across visits.
For the analysis of ORR, DCR, and CBR, summary tables presenting the number and proportion of responders with the 2-sided exact (Clopper-Pearson) 95% CI for response rates were presented. […]
Treatment emergent adverse events (TEAEs) were graded per NCI CTCAE v5.0. Tumor responses were assessed by investigators using RECIST v1.1.

Compound: O=C1CCc2c(Oc3ccc4c(c3)[C@H]3[C@H](NC(=O)Nc5cc(F)c(F)cc5F)[C@H]3O4)ccnc2N1 [Compound A, 1-((1S,1aS,6bS)-5-((7-oxo-5,6,7,8-tetrahydro-1,8-naphthyridin-4-yl)oxy)-1a,6b-dihydro-1H-cyclopropa[b]benzofuran-1-yl)-3-(2,4,5-trifluorophenyl)urea]
- Median time on treatment: approximately 5 months
- Time on treatment, range: 1.9-23.6 months
